Among the data in patent US20210207126A1 are binding values, retold here.

Protein sequences, listed by entry. Tags and fused reporters are not part of them. Residues count along the entry.
UniProt Q07011, residues 24-186: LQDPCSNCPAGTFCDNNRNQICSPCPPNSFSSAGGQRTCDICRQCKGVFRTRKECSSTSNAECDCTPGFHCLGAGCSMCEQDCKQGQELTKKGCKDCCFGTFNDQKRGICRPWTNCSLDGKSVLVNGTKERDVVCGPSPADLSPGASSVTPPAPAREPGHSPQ

No constants are given. Whether binding was seen depends on the method and setting. Some entries that bind do so weakly or less than the wild type.

The assay addresses CD137 antigen used to stain yeast (human) (UniProt Q07011). Kind of assay: flow cytometry, yeast-displayed Fab. Background: Flow cytometry measures light scatter and fluorescence of single cells or particles in a stream.

B1: Fab of TY21242 displayed on yeast (Fab, V domains shown)
VH: EVQLVESGGGLVQPGGSLRLSCAASGFSLSTGGVGVGWIRQAPGKGLEWLALIDWADDKYYSPSLKSRLTISRDNSKNTLYLQLNSLRAEDTAVYYCARGGSDTVIGDWFAYWGQGTLVTVSS
VL: DIQLTQSPSSLSASVGDRVTITCRASQSIGSYLAWYQQKPGKAPKLLIYDASNLETGVPSRFSGSGSGTDFTLTISSLQPEDFATYYCQQGYYLWTFGQGTKVEIK
B1: the binding result is “binds”.
